Test results: ChEMBL document CHEMBL5029184, “Colloidal Aggregators in Biochemical SARS-CoV-2 Repurposing Screens” (J Med Chem, 2021)

Key:
[1] = Inhibition of SARS CoV2 C-terminal His6-tagged 3CL protease (3264 to 3569 residues) expressed in Escherichia coli BL21 DE3 using rr-K(MCA)-ATLQAIAS-K(DNP)-COOH preincubated for 1 hr followed by substrate addition and measured after 1 hr in presence of 0.05% Tween-20; parameters: species or system Severe acute respiratory syndrome coronavirus 2
In short: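 Purified recombinant 3CL-Pro at 50 nM final with quenched fluorogenic peptide at 10 μM final (KM), in 20 mM Tris, 150 mM NaCl, 1 mM EDTA, 1 mM DTT, 0.05% Tween-20, pH 7.4. Drug and enzyme were preincubated 1 h at 37 °C, then substrate was added and fluorescence followed 1 h.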

[2] = Inhibition of porcine heart malate dehydrogenase preincubated for 5 min followed by nicotinamide adenine dinucleotide addition and monitered for 90 sec by spectrophotometric method; assay type: tissue-based, Sus scrofa
In short: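 Porcine heart MDH was used at 2 nM final in 50 mM KPi pH 7 at room temperature. Compound was added from 100× DMSO stock (1% DMSO final) and incubated 5 min. Reactions were followed 90 s spectrophotometrically, with initial rates divided by the negative-control rate. Concentration–response used three replicates per concentration to give IC50 and Hill slope.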

Sus scrofa = organism: Sus scrofa; test: Inhibition of porcine heart malate dehydrogenase assessed as reduction in enzyme inhibition at 3 times IC50 preincubated for 5 min followed by nicotinamide adenine dinucleotide addition and monitered for 90 sec in presence of 0.01% Triton-X100 by spectrophotometric method relative to control; assay type: tissue-based; parameters: scale not given: the % may be the effect or the level left
In short: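 After a 5 min room-temperature incubation, the rate was read over 90 s and compared with the negative control. The value is the percent change in inhibition with detergent; triplicate.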

[3] = Inhibition of SARS-Cov2 N-terminal full-length MBP-tagged 3CL protease expressed in Escherichia coli using DABCYL-KTSAVLQSGFRKME-EDANS as substrate preincubated for 30 mins followed by substrate addition and measured after 3 hrs by fluorescence assay; parameters: species or system Severe acute respiratory syndrome coronavirus 2

Clc1ccccc1C(c1ccccc1)(c1ccccc1)n1ccnc1 [CLOTRIMAZOLE]
IC50 [1]: > 200 µM | IC50 [2]: 22 µM | Activity (Sus scrofa): 53% | IC50 [3]: 39.8 µM

O=C1CCc2ccc(OCCCCN3CCN(c4cccc(Cl)c4Cl)CC3)cc2N1
Activity (Sus scrofa): 91%
